# Results are given in words; binding and its absence hold for the method and conditions named. Binding seen in cells or lysates may run through a third protein. Some results given as binding are weak or reduced against the parent protein; the word gives no strength. Tags and fused reporters may be left off the sequences shown.
# Protein sequences, listed by entry. Tags and fused reporters are not part of them.
# UniProt P27694: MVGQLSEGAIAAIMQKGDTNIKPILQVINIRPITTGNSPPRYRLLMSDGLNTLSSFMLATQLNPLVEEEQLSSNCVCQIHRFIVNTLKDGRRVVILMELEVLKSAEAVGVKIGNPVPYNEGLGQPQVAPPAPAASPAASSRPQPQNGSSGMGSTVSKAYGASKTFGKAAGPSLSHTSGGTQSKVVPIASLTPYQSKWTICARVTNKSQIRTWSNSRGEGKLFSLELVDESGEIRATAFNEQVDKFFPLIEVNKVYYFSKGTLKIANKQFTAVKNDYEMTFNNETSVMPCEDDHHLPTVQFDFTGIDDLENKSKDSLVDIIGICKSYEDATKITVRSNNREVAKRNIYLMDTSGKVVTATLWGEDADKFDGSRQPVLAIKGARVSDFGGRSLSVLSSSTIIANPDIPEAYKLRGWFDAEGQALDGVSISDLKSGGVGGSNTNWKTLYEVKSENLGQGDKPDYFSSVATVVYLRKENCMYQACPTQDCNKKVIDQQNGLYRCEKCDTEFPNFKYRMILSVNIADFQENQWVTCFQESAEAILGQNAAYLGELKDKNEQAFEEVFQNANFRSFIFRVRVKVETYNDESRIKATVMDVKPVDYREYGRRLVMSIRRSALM
# UniProt P54274: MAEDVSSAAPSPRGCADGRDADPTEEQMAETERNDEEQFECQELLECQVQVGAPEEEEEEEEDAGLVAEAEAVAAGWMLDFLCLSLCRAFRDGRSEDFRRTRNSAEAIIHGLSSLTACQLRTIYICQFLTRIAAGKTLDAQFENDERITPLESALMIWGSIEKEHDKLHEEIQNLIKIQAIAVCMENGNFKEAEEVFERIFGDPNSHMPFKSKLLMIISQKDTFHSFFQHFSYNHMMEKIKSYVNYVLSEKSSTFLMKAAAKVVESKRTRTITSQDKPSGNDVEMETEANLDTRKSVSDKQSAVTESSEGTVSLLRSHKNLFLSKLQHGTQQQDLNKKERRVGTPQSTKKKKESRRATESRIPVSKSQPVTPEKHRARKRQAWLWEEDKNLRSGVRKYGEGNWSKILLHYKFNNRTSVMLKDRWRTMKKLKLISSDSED
# UniProt P12004: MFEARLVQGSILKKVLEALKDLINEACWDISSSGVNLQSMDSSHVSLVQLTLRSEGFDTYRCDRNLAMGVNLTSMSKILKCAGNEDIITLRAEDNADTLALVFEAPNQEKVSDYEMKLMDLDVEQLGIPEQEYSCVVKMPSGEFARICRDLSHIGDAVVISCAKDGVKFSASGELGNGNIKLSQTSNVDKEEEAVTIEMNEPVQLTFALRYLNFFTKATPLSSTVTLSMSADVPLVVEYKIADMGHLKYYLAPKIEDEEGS
# Biological target: T1, GST-AKTIP fusion protein (full length AKTIP) (human) (UniProt Q9H8T0)
# T1 sequence: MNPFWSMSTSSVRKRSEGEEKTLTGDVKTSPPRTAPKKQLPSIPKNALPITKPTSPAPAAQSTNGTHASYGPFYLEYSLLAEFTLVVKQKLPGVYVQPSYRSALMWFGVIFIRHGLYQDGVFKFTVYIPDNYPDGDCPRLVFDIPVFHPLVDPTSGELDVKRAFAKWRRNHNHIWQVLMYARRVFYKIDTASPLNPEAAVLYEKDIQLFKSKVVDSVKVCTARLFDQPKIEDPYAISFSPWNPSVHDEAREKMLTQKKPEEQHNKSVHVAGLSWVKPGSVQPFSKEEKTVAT
# Test: pull-down; GST pulldown with bacterially expressed, purified GST-AKTIP from 293T cell extracts; bound proteins detected by immunoblotting; only the target purified
row,binding,Substance
1,binds,"RPA70 (endogenous, 293T cell extract) (from UniProt P27694 1-616)"
2,binds,"TRF1 (endogenous, 293T cell extract) (from UniProt P54274 1-439)"
3,binds,"PCNA (proliferating cell nuclear antigen; endogenous, 293T cell extract) (from UniProt P12004 1-261)"
